# In PubChem BioAssay AID2685 (National Center for Advancing Translational Sciences (NCATS), 2010):
# The other results are listed elsewhere or left out. Further columns of the screen follow, without active or inactive calls. Compounds called inactive in the main read-out are mostly missing here. Words in brackets tell the shape of the fitted curve; partial curves, single points and poor fits give uncertain potencies.
# Test: qHTS Assay for Lipid Storage Modulators in Drosophila S3 Cells;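 on cell number change: cells counted by Cell Tracker Red CMTPX staining in the red channel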
# Settings: BODIPY lipid droplet fluorescence, 18-24 h; for cell number change: measured here: cell count max response, cells fed with added oleic acid
# Method in brief: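 Drosophila S3 cells got compounds at several concentrations plus oleic acid (400 uM solution). Laser-scanning cytometry with 488 nm excitation read lipid droplets at 500-530 nm and cells at 575-640 nm. Percent activity was relative to 20 uM Triacsin C.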
# [1] = measured here: lipid fluorescence (Fed channel) AC50, cells fed with added oleic acid
# [2] = measured here: cell number channel AC50, cells fed with added oleic acid
SMILES,cell number change [%],AC50 [1],AC50 [2]
O=c1c2ccccc2ncn1CCOc1ccccc1[N+](=O)[O-],-22.9,"920 nM [falling, full curve]",
COC(=O)c1cccc(NC(=O)c2cccc(OC)c2)c1,-2.33,"461 nM [rising, full curve, poor fit]",
COc1cccc(OCC(=O)Nc2c3c(nn2-c2ccccc2)CS(=O)(=O)C3)c1,-41.1,"29100 nM [rising, single point]","29100 nM [falling, single point]"
CC1CCC(NC(=O)CSc2nnc(-c3cccnc3)o2)CC1 (stereo not drawn),28.4,,"4.61 nM [rising, full curve, poor fit]"
Cc1cccc(CCN(Cc2cc3cccc(C)c3[nH]c2=O)C(=O)N2CCOCC2)c1,2.91,"4.61 nM [rising, full curve, poor fit]",
NC(=S)N/N=C1\CC(n2nnnc2-c2ccccc2)C2COC1O2 (stereo not drawn),-13.5,,
CC(Oc1ccc(Cl)cc1)c1ccn[nH]1 (stereo not drawn),36.2,"6510 nM [falling, single point]","3260 nM [falling, single point]"
O=C1c2ccccc2C(=O)N1CCc1nc2ccccc2c(=O)n1CCCn1ccnc1,0.292,,
CCOC(=O)c1cc2sccc2n1CC(=O)Nc1ccc(OC)c(OC)c1,-15.4,,
O=C(COC(=O)/C=C/c1cccc(C(F)(F)F)c1)Nc1ccc(Cl)cn1,-13.9,"1840 nM [rising, partial curve]",
COc1ccccc1CN1CCNC(=O)C1CC(=O)O (stereo not drawn),24.7,,
CCSC1=N/C(=C\c2cccc(F)c2)C(=O)S1,-12.6,,
CC(=C/c1ccccc1)/C=N/NC(=O)CSc1nc(C)cc(C)n1,50.2,"184 nM [rising, full curve]","184 nM [rising, full curve]"
N#CCc1nc2c3c4c(sc3ncn2n1)CCCC4,-13.5,"1840 nM [rising, partial curve]","1840 nM [rising, partial curve, poor fit]"
CC(=O)c1ccc(OCC(O)CN2C(C)CCCC2C)cc1 (stereo not drawn),5.7,"2910 nM [falling, single point]",
COc1ccc(/C=C(/NC(=O)c2ccco2)C(=O)Nc2cccc(C(=O)O)c2)cc1,8.12,"29100 nM [falling, single point]",
COc1ccc(S(=O)(=O)Nc2ccccc2C(=O)N2CCOCC2)cc1OC,-1.32,,
O=C(NCc1cccs1)c1ccc(S(=O)(=O)N2CCOCC2)cc1,,"231 nM [falling, full curve, poor fit]",
CCCC(=O)Nc1ccc(S(=O)(=O)Nc2cc(OC)ncn2)cc1,-3.31,"29100 nM [rising, single point]",
COC(=O)c1c(NC(=O)/C=C/c2ccco2)sc2c1CCC2,-4.08,"231 nM [rising, full curve, poor fit]",
CC1CN(c2ncnc3c2oc2ccccc23)CC(C)O1 (stereo not drawn),-9.2,,

SMILES,cell number change [%],AC50 [1],AC50 [2]
CC1CC(C)CN(C(=O)COC(=O)c2cccc([N+](=O)[O-])c2)C1 (stereo not drawn),57.5,,
Cc1nnc(SCC(=O)Nc2ccc3c(c2)OCCO3)n1CC1CCCO1 (stereo not drawn),2.02,"130 nM [falling, full curve, poor fit]",
COc1ccc(-c2csc(NC(=O)CSCc3c(C)noc3C)n2)cc1OC,-15.1,"3660 nM [falling, single point]",
O=C(OCC(=O)N1CCOCC1)c1cc2ccccc2oc1=O,13.4,"4.61 nM [rising, full curve, poor fit]",
Cc1ccc2c(c1)N(CCC(=O)NC(C)C)C(=O)CO2,29.7,"6510 nM [rising, single point]",
CCOC(=O)c1cc2c(=O)n3ccccc3nc2n(CCCOC)c1=NC(=O)C(C)(C)C,-20.6,"18400 nM [falling, partial curve]",
COc1ccc(-n2ncc(C(C)NS(=O)(=O)c3ccc(C)s3)c2C)cc1 (stereo not drawn),9.76,"2310 nM [falling, partial curve]",
NS(=O)(=O)c1ccc(CCNC(=O)CNC(=O)c2ccc(F)cc2)cc1,3.36,,
CCOc1ccc(NC(=O)c2ccc3c(c2)C(=O)N(Cc2ccncc2)C3=O)cc1,4.82,,
CCOC(=O)/C=C1\CN(CCC(C)C)S(=O)(=O)c2ccccc21,4.85,,
Oc1c(Cl)cc(CN2CCCCC2)c2cccnc12,-12.4,"32600 nM [falling, single point]",
O=C(NCC1CCCO1)c1c(O)c2cccc3c2n(c1=O)CC3 (stereo not drawn),37.4,"2310 nM [rising, full curve]","6510 nM [rising, full curve, poor fit]"
COC(=O)c1ccc(NC(=O)Cn2c([N+](=O)[O-])cnc2C)cc1,-8.07,"51.7 nM [rising, partial curve, poor fit]",
Cc1ccc(-c2nnn(CC(=O)N(c3ccccc3)C(C(=O)NCC3CCCO3)c3ccc(F)cc3)n2)o1 (stereo not drawn),16,"130 nM [rising, full curve, poor fit]",
COc1cccc(/C=N/NC(=O)c2cnccn2)c1,101,,"29100 nM [rising, single point]"
Cc1csc(NC(=O)Cn2nc(C)c([N+](=O)[O-])c2C)n1,16.1,"2310 nM [rising, full curve, poor fit]",
CC(C)(C)c1ccc(-n2ncc3c2CCCC3NC(=O)CCN2CCCCC2=O)cc1 (stereo not drawn),-33.7,"5170 nM [falling, partial curve]",
CN1C(=O)c2oc3ccccc3c(=O)c2C1c1ccccn1 (stereo not drawn),,"651 nM [falling, full curve, poor fit]",
S=c1[nH]nc(-c2ccc(Br)o2)n1Cc1ccccc1,12.4,"2310 nM [falling, partial curve, poor fit]",
COc1ccc(-c2cnc(OC(C)(C)C)nc2OC(C)(C)C)cc1OC,-36.9,,"2060 nM [rising, partial curve]"
Cc1ccoc1C(=O)NCCNC(=O)c1occc1C,1.2,,

# Single records, from the list above.
# COc1ccc(-c2csc(NC(=O)CSCc3c(C)noc3C)n2)cc1OC as listed: cell number change [%]: -15.1; AC50 [1]: 3660 nM [falling, single point]
# O=C(OCC(=O)N1CCOCC1)c1cc2ccccc2oc1=O as listed: cell number change [%]: 13.4; AC50 [1]: 4.61 nM [rising, full curve, poor fit]
# CC1CC(C)CN(C(=O)COC(=O)c2cccc([N+](=O)[O-])c2)C1 (stereo not drawn) as listed: cell number change [%]: 57.5

# (cont.)

SMILES,cell number change [%],AC50 [1],AC50 [2]
COc1ccc(CNC(=O)C(c2ccco2)N(C(=O)c2ccccn2)c2ccccc2)cc1 (stereo not drawn),12.5,"731 nM [falling, single point]",
O=C(NC1CC1)C1CCN(c2ncccn2)CC1,28.2,,
O=C(c1ccccc1Br)N1CCn2c1nc1ccccc12,16.7,,"92 nM [rising, full curve, poor fit]"
COc1ccc(C2c3ccc4ccccc4c3Oc3ncn(CCCO)c(=N)c32)cc1 (stereo not drawn),-22.3,"29100 nM [falling, single point]",
Cn1cc([N+](=O)[O-])c(C(=O)NNC(=O)c2ccc([N+](=O)[O-])cc2Cl)n1,-35.2,"580 nM [falling, partial curve]","2910 nM [falling, partial curve]"
CCOC(=O)/C(=N\Nc1cccc(C(F)(F)F)c1)N1CCOCC1,-25.7,"3260 nM [falling, full curve, poor fit]",
Cc1ccc(S(=O)(=O)CCC(=O)Nc2nccs2)cc1,42.1,,"9200 nM [rising, partial curve, poor fit]"
O=C(COc1ccc(F)cc1Br)N1CCN(S(=O)(=O)/C=C/c2ccccc2)CC1,31.9,,"2060 nM [rising, full curve]"
CC1(c2ccc3noc(-c4ccccc4)c3c2)OCCO1,-10.3,"3660 nM [rising, partial curve]",
Cc1sc2ncn(CC(=O)N3CCN(c4ccccn4)CC3)c(=O)c2c1S(=O)(=O)N1CCCCC1,25.4,"1030 nM [falling, single point]",
COc1ccc(CC(=O)Nc2ccc(S(=O)(=O)Nc3cc(C)on3)cc2)cc1OC,12.9,"29100 nM [rising, single point]",
Cc1ccc(C2CC(c3ccc(F)cc3)Nc3nc(N)nn32)cc1 (stereo not drawn),10.9,"7310 nM [rising, partial curve, poor fit]",
O=C(CN1C(=O)NC2(CCCc3ccccc32)C1=O)c1ccc(Br)cc1 (stereo not drawn),117,"461 nM [rising, full curve]","29100 nM [rising, single point]"
Cc1ccc(C(=O)Nc2c(-c3cccs3)c(=O)c3ccccc3n2C)cc1,44.5,"16400 nM [rising, partial curve]","10300 nM [rising, partial curve, poor fit]"
COc1ccc(/C=C2\SC(=O)N(CCC(=O)N3CCCCC3CCO)C2=O)cc1 (stereo not drawn),2.97,"29100 nM [falling, single point]",
COc1ccc(-c2nnc(NC(=O)CS(=O)(=O)c3ccc(Cl)cc3)o2)c(OC)c1,41.9,,"18400 nM [rising, single point]"
c1ccc(-n2nnc3c(N4CCOCC4)ncnc32)cc1,-16.1,"820 nM [falling, full curve]",
Cc1ccc(C)c(NC(=O)CN(C)C(=O)C2COc3ccccc3O2)c1 (stereo not drawn),5.64,"146 nM [rising, full curve]","517 nM [rising, full curve, poor fit]"
COc1ncccc1-c1nnn(-c2ccc(C)cc2)n1,1.72,"116 nM [rising, full curve, poor fit]",
COc1c(Cl)cc(Cl)cc1/C=C/C(=O)c1ccc(NC(=O)c2cccs2)cc1,-7.46,"25900 nM [falling, single point]",
